Taken from: PubChem BioAssay AID1259405 (NCATS, 2018)

Screen: 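Silenced genes that increase secreted GFP made by CHO cells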 (primary screen)
Cells: Chinese hamster CHO-K1 ovary cells with stable secreted eGFP expression
Knock-down reagent: single siRNA against mouse genes, 0.8 pmol siRNA per well (2 µl of 400 nM stock)
Duration: 3 days
Measurement: 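Percent of the per-plate non-targeting control median for intracellular GFP per well by laser scanning cytometry and for cell viability by ATP luminescence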
Direction: GFP, % of control: higher = more GFP per well, higher productivity; viability (ATP), % of control: higher = more viable cells (more ATP)
Hit rule: 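a knock-down is called active if GFP reaches 120% or more of non-targeting control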
In all, the deposit lists about 50,000 reagents; shown is a random part of them. In the full data, about 4,000 (8%) are marked active. 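Mouse siRNA library applied to hamster cells; one well for each siRNA.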 Reagents against one gene are numbered here.

Mfsd1 (major facilitator superfamily domain containing 1) #1: GFP, % of control = 109; viability (ATP), % of control = 89.6; activity call = inactive
Mfsd1 (major facilitator superfamily domain containing 1) #2: GFP, % of control = 68.9; viability (ATP), % of control = 32.1; activity call = inactive
Mfsd1 (major facilitator superfamily domain containing 1) #3: GFP, % of control = 130; viability (ATP), % of control = 102; activity call = active
Slc61a1 #1: GFP, % of control = 157; viability (ATP), % of control = 85; activity call = active
Slc61a1 #2: GFP, % of control = 87.5; viability (ATP), % of control = 85.9; activity call = inactive
Cngb3 (cyclic nucleotide gated channel beta 3) #1: GFP, % of control = 93.8; viability (ATP), % of control = 86.1; activity call = inactive
Cngb3 (cyclic nucleotide gated channel beta 3) #2: GFP, % of control = 66.8; viability (ATP), % of control = 61.1; activity call = inactive
Cngb3 (cyclic nucleotide gated channel beta 3) #3: GFP, % of control = 78.5; viability (ATP), % of control = 46.8; activity call = inactive
Rnf40 (ring finger protein 40) #1: GFP, % of control = 84.6; viability (ATP), % of control = 72.8; activity call = inactive
Rnf40 (ring finger protein 40) #2: GFP, % of control = 48; viability (ATP), % of control = 57.2; activity call = inactive
Rnf40 (ring finger protein 40) #3: GFP, % of control = 79.2; viability (ATP), % of control = 91.9; activity call = inactive
Il1r2 (interleukin 1 receptor, type II) #1: GFP, % of control = 197; viability (ATP), % of control = 109; activity call = active
Il1r2 (interleukin 1 receptor, type II) #2: GFP, % of control = 74.7; viability (ATP), % of control = 80; activity call = inactive
Il1r2 (interleukin 1 receptor, type II) #3: GFP, % of control = 74.2; viability (ATP), % of control = 79.2; activity call = inactive
Tank (TRAF family member-associated Nf-kappa B activator) #1: GFP, % of control = 72.3; viability (ATP), % of control = 54.5; activity call = inactive
Tank (TRAF family member-associated Nf-kappa B activator) #2: GFP, % of control = 101; viability (ATP), % of control = 93.4; activity call = inactive
Tank (TRAF family member-associated Nf-kappa B activator) #3: GFP, % of control = 143; viability (ATP), % of control = 92.6; activity call = active
Pmpca (peptidase (mitochondrial processing) alpha) #1: GFP, % of control = 50.6; viability (ATP), % of control = 58.6; activity call = inactive
Pmpca (peptidase (mitochondrial processing) alpha) #2: GFP, % of control = 63.7; viability (ATP), % of control = 72.9; activity call = inactive
Pmpca (peptidase (mitochondrial processing) alpha) #3: GFP, % of control = 83.1; viability (ATP), % of control = 78.3; activity call = inactive
Crlf1 (cytokine receptor-like factor 1) #1: GFP, % of control = 100; viability (ATP), % of control = 114; activity call = inactive
Crlf1 (cytokine receptor-like factor 1) #2: GFP, % of control = 60; viability (ATP), % of control = 57.3; activity call = inactive
Ifrd1 (interferon-related developmental regulator 1) #1: GFP, % of control = 89.4; viability (ATP), % of control = 94.5; activity call = inactive
Ifrd1 (interferon-related developmental regulator 1) #2: GFP, % of control = 36.5; viability (ATP), % of control = 52.5; activity call = inactive
Ifrd1 (interferon-related developmental regulator 1) #3: GFP, % of control = 89; viability (ATP), % of control = 73.2; activity call = inactive
Fam135b (family with sequence similarity 135, member B) #1: GFP, % of control = 72.9; viability (ATP), % of control = 87.1; activity call = inactive
Fam135b (family with sequence similarity 135, member B) #2: GFP, % of control = 99; viability (ATP), % of control = 94.8; activity call = inactive
Fam135b (family with sequence similarity 135, member B) #3: GFP, % of control = 71.1; viability (ATP), % of control = 71.9; activity call = inactive
Fam135b (family with sequence similarity 135, member B) #4: GFP, % of control = 90.9; viability (ATP), % of control = 110; activity call = inactive
Fam135b (family with sequence similarity 135, member B) #5: GFP, % of control = 81.7; viability (ATP), % of control = 90; activity call = inactive
Fam135b (family with sequence similarity 135, member B) #6: GFP, % of control = 55.8; viability (ATP), % of control = 69.6; activity call = inactive
Folr2 (folate receptor beta) #1: GFP, % of control = 65.4; viability (ATP), % of control = 84.4; activity call = inactive
Folr2 (folate receptor beta) #2: GFP, % of control = 47.9; viability (ATP), % of control = 73.7; activity call = inactive
Folr2 (folate receptor beta) #3: GFP, % of control = 141; viability (ATP), % of control = 62.8; activity call = active
Polr2c (polymerase (RNA) II (DNA directed) polypeptide C) #1: GFP, % of control = 60.3; viability (ATP), % of control = 54.4; activity call = inactive
Polr2c (polymerase (RNA) II (DNA directed) polypeptide C) #2: GFP, % of control = 67.2; viability (ATP), % of control = 116; activity call = inactive
Polr2c (polymerase (RNA) II (DNA directed) polypeptide C) #3: GFP, % of control = 66.8; viability (ATP), % of control = 43.1; activity call = inactive
Tbl3 (transducin (beta)-like 3) #1: GFP, % of control = 76.3; viability (ATP), % of control = 77.9; activity call = inactive
Tbl3 (transducin (beta)-like 3) #2: GFP, % of control = 97.1; viability (ATP), % of control = 95.8; activity call = inactive
Tbl3 (transducin (beta)-like 3) #3: GFP, % of control = 92.4; viability (ATP), % of control = 102; activity call = inactive

Reagents above marked active, once more:
Mfsd1 (major facilitator superfamily domain containing 1) #3: GFP, % of control = 130; viability (ATP), % of control = 102; activity call = active
Slc61a1 #1: GFP, % of control = 157; viability (ATP), % of control = 85; activity call = active
Il1r2 (interleukin 1 receptor, type II) #1: GFP, % of control = 197; viability (ATP), % of control = 109; activity call = active
Tank (TRAF family member-associated Nf-kappa B activator) #3: GFP, % of control = 143; viability (ATP), % of control = 92.6; activity call = active
Folr2 (folate receptor beta) #3: GFP, % of control = 141; viability (ATP), % of control = 62.8; activity call = active
